# Measurements from publication PMC3973330, “A highly divergent archaeo-eukaryotic primase from the Thermococcus nautilus plasmid, pTN2”.
# For at least one entry, the source does not settle the construct or the ends of the probe. Weaker means in comparison with the reference protein, sequence or condition of that experiment. Where a protein sequence is shown, tags need not be part of it.
# Biological target: T1, PolpTN2 (Thermococcus nautilus (plasmid pTN2)) (UniProt D6MY06)
# T1 sequence (looked up, limits assumed): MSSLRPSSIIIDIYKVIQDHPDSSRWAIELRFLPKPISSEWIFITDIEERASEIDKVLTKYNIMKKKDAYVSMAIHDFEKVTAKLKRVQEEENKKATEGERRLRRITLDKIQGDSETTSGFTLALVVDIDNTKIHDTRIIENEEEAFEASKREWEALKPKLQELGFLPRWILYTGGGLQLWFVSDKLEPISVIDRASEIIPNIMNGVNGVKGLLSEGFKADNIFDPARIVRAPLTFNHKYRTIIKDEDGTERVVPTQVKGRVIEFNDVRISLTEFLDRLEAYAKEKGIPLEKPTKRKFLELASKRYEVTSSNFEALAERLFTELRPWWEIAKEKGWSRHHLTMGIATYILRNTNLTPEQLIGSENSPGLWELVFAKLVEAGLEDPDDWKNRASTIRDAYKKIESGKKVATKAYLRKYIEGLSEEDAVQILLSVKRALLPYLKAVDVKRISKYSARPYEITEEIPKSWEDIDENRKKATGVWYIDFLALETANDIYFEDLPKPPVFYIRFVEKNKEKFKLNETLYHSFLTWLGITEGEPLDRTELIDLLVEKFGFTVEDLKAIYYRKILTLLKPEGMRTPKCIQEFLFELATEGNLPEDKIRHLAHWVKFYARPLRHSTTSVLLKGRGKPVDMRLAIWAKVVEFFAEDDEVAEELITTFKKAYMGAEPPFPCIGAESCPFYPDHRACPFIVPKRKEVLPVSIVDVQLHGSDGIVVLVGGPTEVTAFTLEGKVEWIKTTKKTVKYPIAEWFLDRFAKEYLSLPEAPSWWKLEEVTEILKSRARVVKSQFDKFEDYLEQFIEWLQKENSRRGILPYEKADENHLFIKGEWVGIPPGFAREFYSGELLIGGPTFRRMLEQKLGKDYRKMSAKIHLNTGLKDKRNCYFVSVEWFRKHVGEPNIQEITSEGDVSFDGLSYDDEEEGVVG
# Assay: EMSA
# Details: 10 mM Mg2+, very little shifted material, EMSA: 50 mM Tris-HCl pH 8, 20 mM KCl, 10 mM MgCl2, 7.5 nM probe, 30 min at 65 C, 10% native PAGE in TBE, recombinant protein, protein details: His-tag (pDEST17), label: 32P
Sequence,binding result (single-stranded DNA),binding result
AGAGGGTTCAAAAAATGGTTTCACCCCAAA [30 DNA],binds more weakly,
AGAGGGUUCAAAAAAUGGUUUCACCCCAAA [30 RT],,binds more weakly
